We go through three sequences from article PMC4001326.

For part of these data: No signal at the amounts used counts as a negative. At least one verdict rests on a figure or table, not on a statement of the authors. For part of these data: Construct, isoform or probe ends are uncertain for at least one entry.

Data set [1] concerns pol V Mut WT (UmuD'2C-RecA-ATP) (Escherichia coli (pol V from strain RW644)). In words: fluorescence anisotropy. Particulars: 20 mM Tris-HCl pH 7.5, 25 mM Na glutamate, 8 mM MgCl2, 8 mM DTT, 4% glycerol, 0.1 mM EDTA, 37 C, 50 nM labeled hairpin, 500 uM ATP or ATPgS (titrations to 750 uM), recombinant protein, protein details: His (pol V), label: fluorescein (internal dT), folded or branched DNA.

For data set [2], the system named is pol V Mut E38K/K72R (Escherichia coli (pol V from strain RW644)). The data set can be described thus: fluorescence anisotropy. Particulars: 20 mM Tris-HCl pH 7.5, 25 mM Na glutamate, 8 mM MgCl2, 8 mM DTT, 4% glycerol, 0.1 mM EDTA, 37 C, 50 nM labeled hairpin, 500 uM ATP or ATPgS (titrations to 750 uM), recombinant protein, protein details: His (pol V), label: fluorescein (internal dT), folded or branched DNA.

The target of data set [3] is RecA WT (Escherichia coli) (UniProt P0A7G6). The data set can be described thus: pull-down (ssDNA resin). The note with it: ATPgS or ATP; 5' amino-C12 linked to cyanogen bromide-activated Sepharose; 20 mM Tris-HCl pH 7.5, 25 mM Na glutamate, 8 mM MgCl2, 8 mM DTT, 4% glycerol, 0.1 mM EDTA, 37 C; 50 nM labeled hairpin; 500 uM ATP or ATPgS (titrations to 750 uM); recombinant protein; single-stranded DNA.

Data set [4] addresses RecA E38K/K72R E39K,K73R (UniProt P0A7G6). The data set can be described thus: pull-down (ssDNA resin). The note with it: ATPgS or ATP; 5' amino-C12 linked to cyanogen bromide-activated Sepharose; 20 mM Tris-HCl pH 7.5, 25 mM Na glutamate, 8 mM MgCl2, 8 mM DTT, 4% glycerol, 0.1 mM EDTA, 37 C; 50 nM labeled hairpin; 500 uM ATP or ATPgS (titrations to 750 uM); recombinant protein; single-stranded DNA.

The target in data set [5] is RecA E38K/ΔC17 E39K,del18-18 (UniProt P0A7G6). The data set can be described thus: pull-down (ssDNA resin). The note with it: ATPgS or ATP; 5' amino-C12 linked to cyanogen bromide-activated Sepharose; 20 mM Tris-HCl pH 7.5, 25 mM Na glutamate, 8 mM MgCl2, 8 mM DTT, 4% glycerol, 0.1 mM EDTA, 37 C; 50 nM labeled hairpin; 500 uM ATP or ATPgS (titrations to 750 uM); recombinant protein; residues 2-336; single-stranded DNA.

Setting [6] is: 500 uM ATP, fluorescein-dT replacing T44 (from parent S5).
Where [7] appears, read: no nucleotide, fluorescein-dT replacing T44 (from parent S5).
The mark [8] stands for this setting: no nucleotide, fluorescein-dT replacing T17 (from parent S1).

In the case of “CGAAACAGGAAAGCAGTTAGCGCATTCAGCTCATACTGCTGAATGCGCTAACTGC [Fluorescein 12 nt oh HP]”, the binding result in data set [1] (setting [6]), in data set [1] (setting [7]), in data set [2] (setting [6]) and in data set [2] (setting [7]) was “no binding” each time.

In the case of “AGAGCAGTTAGCGCATTCAGCTCATACTGCTGAATGCGCTAACTGC [Fluorescein 3 nt oh HP]”, the binding result is on record as “no binding” in data set [1] (ATP, fluorescein-dT replacing T17 (from parent S1)); “no binding” in data set [1] (setting [8]); “no binding” in data set [2] (ATP, no appreciable binding, though DNA synthesis implies some, fluorescein-dT replacing T17 (from parent S1)); “binds” in data set [2] (ATPgS, fluorescein-dT replacing T17 (from parent S1)); “no binding” in data set [2] (setting [8]).

For “TTTTTTTTTTTTTTTTTTTTTTTTTTTTTTTTTTTTTTTTTTTTT [Amino C12-linked 45mer]”, the binding result in data set [3], in data set [4] and in data set [5] was “binds” each time.
